Results reported in patent US20180353539A1, “METAL COMPLEXES AS PHARMACEUTICALS FOR TREATMENT AND PREVENTION OF CANCER AND INFLAMMATORY DISEASES” (UNIVERSITY OF SOUTHERN CALIFORNIA, priority 2017, published 2018).

Test system: fresh muscle tissue
Assay: Treated muscle tissue implanted subcutaneously into rats
Type: in vivo

Nc1ccn([C@@H]2O[C@H](CO)[C@@H](O)C2(F)F)c(=O)n1 [Gemcitabine]
inflammation of implanted tissue (day 3, tissue treated ex vivo 24 hours (Gemcitabine 100 microM)): severe inflammation
inflammation of implanted tissue (day 7): severe inflammation
state and capsulation of implanted tissue (day 7): fibrous capsules formed around the tissue
